# Results are given in words; binding and its absence hold for the method and conditions named. In cells and extracts the contact can be indirect. Some results given as binding are weak or reduced against the parent protein; the word gives no strength. Sequences can lack the tags named with a protein.
# T1: GFP-PDK1 (3-phosphoinositide-dependent protein kinase-1) (UniProt O15530)
# T1 sequence: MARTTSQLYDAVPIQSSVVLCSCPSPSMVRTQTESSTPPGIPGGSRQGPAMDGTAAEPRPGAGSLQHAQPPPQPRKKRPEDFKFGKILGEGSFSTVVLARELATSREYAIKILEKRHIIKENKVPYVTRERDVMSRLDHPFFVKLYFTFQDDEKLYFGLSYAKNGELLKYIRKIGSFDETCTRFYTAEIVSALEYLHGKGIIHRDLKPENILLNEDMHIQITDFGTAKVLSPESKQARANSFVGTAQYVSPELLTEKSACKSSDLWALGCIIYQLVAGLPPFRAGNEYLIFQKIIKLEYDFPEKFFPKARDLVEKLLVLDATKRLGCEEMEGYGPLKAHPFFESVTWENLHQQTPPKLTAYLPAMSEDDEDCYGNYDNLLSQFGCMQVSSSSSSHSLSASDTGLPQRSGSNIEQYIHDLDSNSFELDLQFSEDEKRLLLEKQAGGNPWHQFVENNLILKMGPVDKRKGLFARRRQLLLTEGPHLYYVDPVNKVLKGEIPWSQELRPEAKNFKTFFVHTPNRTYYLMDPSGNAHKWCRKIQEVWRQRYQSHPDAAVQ
# T2: GFP-PDK1 PH domain (UniProt O15530)
# T2 sequence: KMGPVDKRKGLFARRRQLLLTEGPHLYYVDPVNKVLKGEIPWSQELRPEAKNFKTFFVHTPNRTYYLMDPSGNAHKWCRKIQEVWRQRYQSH
# B1: GFP-PDK1 (3-phosphoinositide-dependent protein kinase-1) (enzyme, UniProt O15530 1-556)
# chain: T1 sequence
# Tests used:
# Assay in all cases: co-IP
# [1] = target: T1, GFP-PDK1 (3-phosphoinositide-dependent protein kinase-1)
# GFP-PDK1 PH domain = target: T2, GFP-PDK1 PH domain
# [2] = target: FLAG-SARS-CoV-2 M (membrane glycoprotein M) (SARS-CoV-2) (UniProt P0DTC5)
Molecule,binding [1],binding (GFP-PDK1 PH domain),binding [2]
FLAG-SARS-CoV-2 M (membrane glycoprotein M) (from UniProt P0DTC5 1-222),binds,binds,–
Myc-SARS-CoV-2 M (from UniProt P0DTC5 1-222),binds,–,–
B1,–,–,binds

# From PMC8425412
